Data taken from the supplement of paper PMC10849652.
The list shows a part of the results.

The chains behind the UniProt entries cited, without tags or fusion partners. Where a name states a change or a piece, a line headed by the entry shows the natural chain unless it says otherwise.
UniProt Q99942: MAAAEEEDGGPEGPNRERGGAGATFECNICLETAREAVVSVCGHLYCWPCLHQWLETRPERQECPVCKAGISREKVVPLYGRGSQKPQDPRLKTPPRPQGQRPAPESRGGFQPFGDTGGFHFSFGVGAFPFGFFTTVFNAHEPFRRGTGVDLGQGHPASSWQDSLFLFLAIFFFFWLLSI
UniProt Q01974, whole entry, looked up: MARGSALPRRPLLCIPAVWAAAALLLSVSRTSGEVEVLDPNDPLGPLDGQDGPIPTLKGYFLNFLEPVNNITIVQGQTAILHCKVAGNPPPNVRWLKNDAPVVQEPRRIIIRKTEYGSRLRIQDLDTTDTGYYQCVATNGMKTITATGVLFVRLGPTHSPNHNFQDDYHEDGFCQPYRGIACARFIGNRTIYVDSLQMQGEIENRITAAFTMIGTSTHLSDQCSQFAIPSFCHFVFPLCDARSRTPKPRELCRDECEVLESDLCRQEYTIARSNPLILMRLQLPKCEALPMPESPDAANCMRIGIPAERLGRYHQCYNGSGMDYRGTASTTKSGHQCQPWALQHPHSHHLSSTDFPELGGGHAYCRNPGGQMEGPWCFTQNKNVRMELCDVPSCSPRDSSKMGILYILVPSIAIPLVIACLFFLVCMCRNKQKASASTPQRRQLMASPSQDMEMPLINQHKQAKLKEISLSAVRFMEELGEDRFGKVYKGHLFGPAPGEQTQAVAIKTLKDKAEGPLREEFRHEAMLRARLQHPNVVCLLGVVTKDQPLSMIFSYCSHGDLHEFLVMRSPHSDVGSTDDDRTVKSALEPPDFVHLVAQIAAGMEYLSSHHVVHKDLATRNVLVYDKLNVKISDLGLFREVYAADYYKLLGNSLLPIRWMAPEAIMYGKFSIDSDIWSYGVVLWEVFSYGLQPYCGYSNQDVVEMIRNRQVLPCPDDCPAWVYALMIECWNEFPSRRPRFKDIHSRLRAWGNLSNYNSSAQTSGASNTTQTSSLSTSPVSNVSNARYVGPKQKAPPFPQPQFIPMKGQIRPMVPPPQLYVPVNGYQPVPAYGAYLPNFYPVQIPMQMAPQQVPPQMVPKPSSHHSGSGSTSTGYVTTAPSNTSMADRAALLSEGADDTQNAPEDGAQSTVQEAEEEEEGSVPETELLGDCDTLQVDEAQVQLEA
UniProt Q8IXW5, whole entry, looked up: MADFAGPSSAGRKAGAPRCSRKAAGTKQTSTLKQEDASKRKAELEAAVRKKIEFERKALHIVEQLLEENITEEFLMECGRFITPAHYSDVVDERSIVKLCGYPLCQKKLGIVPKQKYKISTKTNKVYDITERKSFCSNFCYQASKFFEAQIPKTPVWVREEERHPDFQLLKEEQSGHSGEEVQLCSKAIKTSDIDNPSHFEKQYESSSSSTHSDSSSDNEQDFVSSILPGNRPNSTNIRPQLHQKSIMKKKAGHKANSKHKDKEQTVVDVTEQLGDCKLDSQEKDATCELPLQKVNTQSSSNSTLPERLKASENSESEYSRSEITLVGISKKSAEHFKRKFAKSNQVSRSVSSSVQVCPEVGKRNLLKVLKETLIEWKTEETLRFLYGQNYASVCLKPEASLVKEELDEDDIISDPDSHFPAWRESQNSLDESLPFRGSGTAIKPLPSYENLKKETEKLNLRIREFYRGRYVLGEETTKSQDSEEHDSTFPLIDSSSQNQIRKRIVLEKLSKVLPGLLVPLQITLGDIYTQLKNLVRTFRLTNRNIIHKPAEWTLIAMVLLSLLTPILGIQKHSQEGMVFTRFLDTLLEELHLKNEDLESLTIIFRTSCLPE
UniProt P27694, whole entry, looked up: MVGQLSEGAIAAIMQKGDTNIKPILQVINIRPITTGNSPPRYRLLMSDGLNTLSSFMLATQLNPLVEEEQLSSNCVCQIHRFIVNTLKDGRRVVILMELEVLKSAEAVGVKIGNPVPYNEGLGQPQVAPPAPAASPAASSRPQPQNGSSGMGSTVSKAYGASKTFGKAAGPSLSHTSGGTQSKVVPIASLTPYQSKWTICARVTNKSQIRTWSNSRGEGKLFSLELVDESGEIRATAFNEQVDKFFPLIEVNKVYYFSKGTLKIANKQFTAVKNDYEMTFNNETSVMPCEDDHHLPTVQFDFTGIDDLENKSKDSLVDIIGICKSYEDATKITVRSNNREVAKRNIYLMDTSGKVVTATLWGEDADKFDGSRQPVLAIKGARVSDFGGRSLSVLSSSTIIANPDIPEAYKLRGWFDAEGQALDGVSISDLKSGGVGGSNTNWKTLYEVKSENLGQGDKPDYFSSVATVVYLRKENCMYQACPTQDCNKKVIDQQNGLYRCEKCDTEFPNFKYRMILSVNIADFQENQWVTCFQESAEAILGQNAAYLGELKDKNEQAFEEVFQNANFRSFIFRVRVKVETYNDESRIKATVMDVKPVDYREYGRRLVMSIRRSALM
UniProt Q15418, whole entry, looked up: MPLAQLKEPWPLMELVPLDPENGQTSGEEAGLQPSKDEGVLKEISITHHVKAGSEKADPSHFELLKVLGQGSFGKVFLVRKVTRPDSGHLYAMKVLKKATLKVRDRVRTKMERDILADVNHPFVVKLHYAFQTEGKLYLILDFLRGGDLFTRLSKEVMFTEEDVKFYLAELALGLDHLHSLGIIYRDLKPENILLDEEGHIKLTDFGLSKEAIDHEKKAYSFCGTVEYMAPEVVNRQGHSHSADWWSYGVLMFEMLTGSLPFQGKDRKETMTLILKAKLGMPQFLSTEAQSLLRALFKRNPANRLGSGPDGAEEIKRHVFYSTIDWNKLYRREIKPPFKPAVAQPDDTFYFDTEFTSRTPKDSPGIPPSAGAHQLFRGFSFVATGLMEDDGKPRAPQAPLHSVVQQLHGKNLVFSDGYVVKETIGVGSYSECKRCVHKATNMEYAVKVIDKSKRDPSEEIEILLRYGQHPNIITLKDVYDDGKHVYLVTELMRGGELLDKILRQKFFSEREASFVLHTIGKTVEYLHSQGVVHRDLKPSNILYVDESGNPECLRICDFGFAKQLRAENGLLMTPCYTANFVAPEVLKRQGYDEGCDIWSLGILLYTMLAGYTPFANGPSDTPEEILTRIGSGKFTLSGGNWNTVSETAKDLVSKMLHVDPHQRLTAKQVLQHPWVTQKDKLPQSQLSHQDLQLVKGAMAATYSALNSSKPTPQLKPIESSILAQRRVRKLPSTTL
UniProt Q9H6T3, whole entry, looked up: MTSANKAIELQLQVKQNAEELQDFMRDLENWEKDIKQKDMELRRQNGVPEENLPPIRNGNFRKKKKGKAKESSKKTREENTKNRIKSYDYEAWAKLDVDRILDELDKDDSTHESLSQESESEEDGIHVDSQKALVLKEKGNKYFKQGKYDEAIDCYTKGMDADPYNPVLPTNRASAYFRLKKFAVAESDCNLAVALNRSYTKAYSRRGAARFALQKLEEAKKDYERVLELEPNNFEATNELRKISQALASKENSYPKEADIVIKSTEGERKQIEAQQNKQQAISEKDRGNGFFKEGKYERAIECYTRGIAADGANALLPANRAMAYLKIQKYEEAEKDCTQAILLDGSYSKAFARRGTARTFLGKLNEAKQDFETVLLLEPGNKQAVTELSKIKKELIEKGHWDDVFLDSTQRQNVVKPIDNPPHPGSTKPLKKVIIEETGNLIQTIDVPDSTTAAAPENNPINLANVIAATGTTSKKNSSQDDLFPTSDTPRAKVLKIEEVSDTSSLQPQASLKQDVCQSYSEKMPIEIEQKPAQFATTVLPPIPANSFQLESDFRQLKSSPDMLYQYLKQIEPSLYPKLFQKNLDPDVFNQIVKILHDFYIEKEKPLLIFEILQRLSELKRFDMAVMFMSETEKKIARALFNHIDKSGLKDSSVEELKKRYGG
UniProt Q96S38: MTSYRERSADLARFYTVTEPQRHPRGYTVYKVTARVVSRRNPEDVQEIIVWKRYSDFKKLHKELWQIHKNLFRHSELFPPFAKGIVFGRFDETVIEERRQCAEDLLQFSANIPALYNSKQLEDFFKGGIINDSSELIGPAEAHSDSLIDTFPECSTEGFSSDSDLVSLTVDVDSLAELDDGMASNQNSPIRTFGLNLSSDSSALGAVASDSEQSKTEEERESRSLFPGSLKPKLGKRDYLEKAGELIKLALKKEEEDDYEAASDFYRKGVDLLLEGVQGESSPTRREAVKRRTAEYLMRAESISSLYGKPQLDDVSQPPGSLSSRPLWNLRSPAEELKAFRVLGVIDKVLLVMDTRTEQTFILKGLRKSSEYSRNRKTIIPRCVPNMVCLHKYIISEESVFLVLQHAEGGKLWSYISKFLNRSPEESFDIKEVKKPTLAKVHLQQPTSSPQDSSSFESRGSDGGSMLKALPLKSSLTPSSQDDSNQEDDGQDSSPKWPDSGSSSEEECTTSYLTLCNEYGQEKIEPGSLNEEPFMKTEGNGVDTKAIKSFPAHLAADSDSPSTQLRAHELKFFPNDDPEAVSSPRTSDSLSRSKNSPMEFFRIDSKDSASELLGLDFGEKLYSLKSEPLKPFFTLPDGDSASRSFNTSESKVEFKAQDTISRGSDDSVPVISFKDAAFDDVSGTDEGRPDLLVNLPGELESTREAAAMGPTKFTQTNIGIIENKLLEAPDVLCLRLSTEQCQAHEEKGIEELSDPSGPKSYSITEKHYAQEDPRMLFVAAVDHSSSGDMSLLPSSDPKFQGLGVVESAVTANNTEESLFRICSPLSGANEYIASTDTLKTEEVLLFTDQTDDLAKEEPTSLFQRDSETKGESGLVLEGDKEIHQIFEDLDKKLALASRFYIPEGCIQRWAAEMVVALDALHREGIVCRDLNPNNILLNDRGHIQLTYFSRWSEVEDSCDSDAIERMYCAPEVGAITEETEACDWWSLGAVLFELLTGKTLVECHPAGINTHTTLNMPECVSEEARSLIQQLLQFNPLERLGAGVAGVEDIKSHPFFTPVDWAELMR
UniProt Q15287: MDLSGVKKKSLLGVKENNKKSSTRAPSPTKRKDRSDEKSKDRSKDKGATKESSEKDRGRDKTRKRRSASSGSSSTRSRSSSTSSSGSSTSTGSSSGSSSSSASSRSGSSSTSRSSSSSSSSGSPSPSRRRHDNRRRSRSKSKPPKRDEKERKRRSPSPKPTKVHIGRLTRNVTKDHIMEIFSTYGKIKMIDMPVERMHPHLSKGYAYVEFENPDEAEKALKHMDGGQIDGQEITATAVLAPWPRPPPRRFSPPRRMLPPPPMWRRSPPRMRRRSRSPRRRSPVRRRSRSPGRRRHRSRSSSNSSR
UniProt P62070: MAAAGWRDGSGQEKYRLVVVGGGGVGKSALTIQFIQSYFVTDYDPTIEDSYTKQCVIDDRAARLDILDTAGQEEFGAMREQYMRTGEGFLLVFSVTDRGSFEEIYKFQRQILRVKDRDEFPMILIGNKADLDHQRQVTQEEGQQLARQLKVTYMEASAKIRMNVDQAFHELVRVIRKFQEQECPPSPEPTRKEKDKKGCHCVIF
UniProt O75582, whole entry, looked up: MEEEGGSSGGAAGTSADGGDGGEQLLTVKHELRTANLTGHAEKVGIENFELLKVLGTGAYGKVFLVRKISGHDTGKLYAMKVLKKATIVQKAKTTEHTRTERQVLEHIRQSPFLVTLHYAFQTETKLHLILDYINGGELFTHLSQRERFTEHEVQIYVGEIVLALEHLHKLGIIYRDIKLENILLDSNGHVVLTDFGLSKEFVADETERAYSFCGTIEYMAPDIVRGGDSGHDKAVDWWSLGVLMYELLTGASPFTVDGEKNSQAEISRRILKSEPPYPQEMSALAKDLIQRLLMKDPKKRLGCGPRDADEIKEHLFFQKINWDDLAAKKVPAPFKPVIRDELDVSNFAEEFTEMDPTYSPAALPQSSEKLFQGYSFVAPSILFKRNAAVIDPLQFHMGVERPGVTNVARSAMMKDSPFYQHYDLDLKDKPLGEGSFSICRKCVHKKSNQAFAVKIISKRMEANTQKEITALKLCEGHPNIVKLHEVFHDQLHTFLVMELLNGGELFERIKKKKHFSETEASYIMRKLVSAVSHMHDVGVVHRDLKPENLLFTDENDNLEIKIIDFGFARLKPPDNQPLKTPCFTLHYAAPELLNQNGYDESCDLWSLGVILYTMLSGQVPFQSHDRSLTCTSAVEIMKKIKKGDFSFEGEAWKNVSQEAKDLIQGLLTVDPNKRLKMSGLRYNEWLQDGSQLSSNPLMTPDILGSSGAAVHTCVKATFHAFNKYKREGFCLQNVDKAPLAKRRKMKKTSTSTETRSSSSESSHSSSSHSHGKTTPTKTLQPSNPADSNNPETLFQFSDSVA

Columns and labels:
Assay in all cases: log2 fold change, soluble protein after heating vs DMSO (PISA); higher = thermal stabilisation; K562 cells, 10 uM, 30 min; active = over 0.2 and 3.5 SD of the protein, either way, in both replicates (recomputed)
[1] = compound: CS(=O)(=O)c1ccc(-c2cnc(N)c(C(=O)Nc3ccccc3)n2)cc1
Outline: (§1)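 K562 cells at 2×10^6 cells/mL were treated for 30 min with 10 μM compound, and aliquots were heated for 3 min over 48°C-58°C before pooling. Extraction used PBS with 0.5% NP-40 at 4°C, and soluble protein was the supernatant after 21,000xg for 90 min, measured by TMTpro 16plex LC-MS/MS with channel sums equalised. Thermal stability values, relative to control samples and from duplicates, are log2 fold changes.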

[2] = compound: C[C@@H](Oc1cc(-c2cnn(C3CCNCC3)c2)cnc1N)c1c(Cl)ccc(F)c1Cl [crizotinib]
Outline: as §1

[3] = compound: C[C@@H]1COCCN1C2=NC(=NC(=C2)C3(CC3)S(=O)(=O)C)C4=C5C=CNC5=CC=C4
Outline: as §1

[4] = compound: C[C@H](C1=CC=C(C=C1)C(=O)NC2=C3C=CNC3=NC=C2)N
Outline: as §1

[5] = compound: Cc1cc(Nc2cc(CN3CCOCC3)c3nc(C)c(Cc4ccc(Cl)cc4F)n3n2)n[nH]1 [gandotinib]
Outline: as §1

[6] = compound: Cc1cc(SCc2sc(-c3ccc(C(F)(F)F)cc3)nc2C)ccc1OCC(=O)O
Outline: as §1

[7] = compound: Cc1ccc(-n2nc(C(C)(C)C)cc2NC(=O)Nc2ccc(OCCN3CCOCC3)c3ccccc23)cc1 [doramapimod]
Outline: as §1

[8] = compound: Cc1ccc(C(=O)N(CCCN)[C@@H](c2nc3cc(Cl)ccc3c(=O)n2Cc2ccccc2)C(C)C)cc1 [ispinesib]
Outline: as §1

[9] = compound: C[C@H](Nc1ncnc2nc[nH]c12)c1cc2cccc(Cl)c2c(=O)n1-c1ccccc1 [duvelisib]
Outline: as §1

[10] = compound: Cc1cc(Nc2cc(N3CCN(C)CC3)nc(Sc3ccc(NC(=O)C4CC4)cc3)n2)n[nH]1 [tozasertib]
Outline: as §1

Measured: log2 fold change

RPS27A (UniProt P62979)
inactive: [1] 0.05 | [2] 0.053 | [3] -0.229 | [4] 0.088 | [5] 0.347 | [6] 0 | [7] -0.049 | [8] -0.047

RPL8 (UniProt P62917)
inactive: [1] -0.201 | [2] 0.107 | [3] -1.13 | [4] 0.74 | [9] -0.331 | [5] 0.489 | [10] 0.059 | [6] 0.052 | [7] 0.404 | [8] -0.336

RPS4X (UniProt P62701)
inactive: [1] -0.027 | [2] 0.021 | [3] -0.378 | [4] 0.333 | [5] 0.264 | [6] -0.023 | [7] 0.18 | [8] -0.141

RNF5 (UniProt Q99942)
inactive: [1] -0.043 | [2] -0.324 | [3] 0.147 | [4] -0.059 | [5] -0.069 | [10] 0.019 | [7] 0.053 | [8] -0.09

RPS18 (UniProt P62269)
inactive: [1] -0.022 | [2] 0.033 | [3] -0.244 | [4] 0.222 | [5] 0.129 | [6] -0.002 | [7] 0.105 | [8] -0.074

RPS14 (UniProt P62263)
inactive: [1] -0.049 | [2] -0.075 | [3] -0.22 | [4] 0.183 | [5] 0.056 | [6] 0.023 | [7] 0.071 | [8] 0.002

RPS2 (UniProt P15880)
inactive: [1] -0.045 | [2] 0.043 | [3] -0.369 | [4] 0.286 | [5] 0.202 | [6] 0.007 | [7] 0.131 | [8] -0.162

ROR2 (UniProt Q01974)
inactive: [1] 0.028 | [2] 0.007 | [3] 0.081 | [4] -0.031 | [5] -0.007 | [6] 0.097 | [7] -0.04 | [8] 0.083

RPAP2 (UniProt Q8IXW5)
inactive: [1] 0.081 | [2] -0.197 | [3] -0.037 | [4] 0.353 | [5] -0.07 | [10] 0.088 | [7] 0.192 | [8] -0.248

RPL18A (UniProt Q02543)
inactive: [1] -0.021 | [2] 0.039 | [3] -1.16 | [4] 0.686 | [9] -0.374 | [5] 0.49 | [10] 0.09 | [6] 0.031 | [7] 0.424 | [8] -0.323

RPL36A (UniProt P83881)
inactive: [1] -0.132 | [2] 0.044 | [3] -0.667 | [4] 0.564 | [9] -0.284 | [5] 0.358 | [10] 0.014 | [6] -0.082 | [7] 0.245 | [8] -0.284

RPL31 (UniProt P62899)
inactive: [1] -0.08 | [2] 0.079 | [3] -0.56 | [4] 0.396 | [5] 0.35 | [6] -0.001 | [7] 0.173 | [8] -0.167

RPA1 (UniProt P27694)
inactive: [1] -0.028 | [2] -0.019 | [3] -0.199 | [4] 0.036 | [5] -0.103 | [6] 0.022 | [7] -0.05 | [8] 0.004

RPS8 (UniProt P62241)
inactive: [1] -0.047 | [2] 0.061 | [3] -0.551 | [4] 0.333 | [9] -0.225 | [5] 0.378 | [10] 0.048 | [6] 0.015 | [7] 0.246 | [8] -0.099

Quoted from above (2 entries):
RPA1 (UniProt P27694)
inactive: [1] -0.028 | [2] -0.019 | [3] -0.199 | [4] 0.036 | [5] -0.103 | [6] 0.022 | [7] -0.05 | [8] 0.004

RPS8 (UniProt P62241)
inactive: [1] -0.047 | [2] 0.061 | [3] -0.551 | [4] 0.333 | [9] -0.225 | [5] 0.378 | [10] 0.048 | [6] 0.015 | [7] 0.246 | [8] -0.099

Next entries follow:

RPL22 (UniProt P35268)
inactive: [1] -0.08 | [2] 0.096 | [3] -0.466 | [4] 0.455 | [9] -0.167 | [5] 0.213 | [10] 0.028 | [6] -0.008 | [7] 0.177 | [8] -0.243

RPS6KA1 isoform 2 (UniProt Q15418)
inactive: [1] 0 | [2] -0.259 | [3] 0.138 | [4] -0.066 | [5] -0.199 | [6] 0.066 | [7] -0.026 | [8] 0.021

RPS20 isoform 2 (UniProt P60866)
inactive: [1] -0.062 | [2] 0.013 | [3] -0.176 | [4] 0.174 | [5] 0.129 | [6] 0.004 | [7] 0.048 | [8] -0.066

RPL39P5 (UniProt Q59GN2)
inactive: [1] 0.042 | [2] -0.003 | [3] -0.648 | [4] 0.345 | [9] -0.321 | [5] 0.295 | [10] 0.044 | [6] -0.076 | [7] 0.186 | [8] -0.127

RPS23 (UniProt P62266)
inactive: [1] -0.052 | [2] 0.023 | [3] -0.684 | [4] 0.471 | [9] -0.264 | [5] 0.344 | [10] 0.033 | [6] 0.023 | [7] 0.218 | [8] -0.156

RPAP3 (UniProt Q9H6T3)
inactive: [1] 0.073 | [2] -0.066 | [3] -0.04 | [4] -0.015 | [9] 0.002 | [5] -0.036 | [10] 0.021 | [6] 0.062 | [7] -0.038 | [8] -0.054

RPS5 (UniProt P46782)
inactive: [1] -0.081 | [2] 0 | [3] -0.255 | [4] 0.176 | [5] 0.108 | [6] 0.017 | [7] 0.069 | [8] -0.073

RPS6KC1 (UniProt Q96S38)
inactive: [1] 0.052 | [2] 0.028 | [3] 0.04 | [4] -0.121 | [9] 0.206 | [5] 0.163 | [10] 0.01 | [6] 0.137 | [7] -0.014 | [8] -0.057

RPL24 (UniProt P83731)
inactive: [1] -0.047 | [2] -0.001 | [3] -0.76 | [4] 0.376 | [9] -0.234 | [5] 0.275 | [10] 0.051 | [6] 0.037 | [7] 0.168 | [8] -0.218

RNPS1 (UniProt Q15287)
inactive: [1] 0.018 | [2] -0.109 | [3] 0.114 | [4] -0.019 | [5] 0.089 | [6] -0.028 | [7] -0.104 | [8] 0.042

RPS25 (UniProt P62851)
inactive: [1] -0.101 | [2] -0.041 | [3] -0.286 | [4] 0.239 | [5] 0.239 | [6] 0.032 | [7] 0.178 | [8] -0.148

RPS3A (UniProt P61247)
inactive: [1] -0.064 | [2] 0.022 | [3] -0.182 | [4] 0.196 | [5] 0.175 | [6] 0.029 | [7] 0.044 | [8] -0.072

RPS3 (UniProt P23396)
inactive: [1] -0.07 | [2] 0.025 | [3] -0.258 | [4] 0.203 | [5] 0.134 | [6] 0.045 | [7] 0.077 | [8] -0.127

RPL32 (UniProt P62910)
inactive: [1] -0.108 | [2] 0.036 | [3] -0.801 | [4] 0.517 | [9] -0.298 | [5] 0.12 | [10] 0.043 | [6] 0.065 | [7] 0.207 | [8] -0.107

RRAS2 isoform 4 (UniProt P62070)
inactive: [1] 0.044 | [2] 0.162 | [3] -0.001 | [4] -0.152 | [5] -0.016 | [6] -0.042 | [7] 0.012 | [8] -0.019

RPS13 (UniProt P62277)
inactive: [1] -0.053 | [2] 0.076 | [3] -0.548 | [4] 0.403 | [5] 0.296 | [6] -0.013 | [7] 0.247 | [8] -0.195

RPS6KA5 (UniProt O75582)
inactive: [2] -0.393 | [3] 0.045 | [7] -0.016 | [8] 0.018
